Laboratory results as given in the supplement of paper PMC6411743.
± gives the standard deviation of the averaged measurements. Only a part is listed here, and it is no random draw. Small differences around the control level are noise.

By UniProt entry, the sequences of proteins in these tests, tags left out. Where a name states a change or a piece, a line headed by the entry shows the natural chain unless it says otherwise.
UniProt Q92947: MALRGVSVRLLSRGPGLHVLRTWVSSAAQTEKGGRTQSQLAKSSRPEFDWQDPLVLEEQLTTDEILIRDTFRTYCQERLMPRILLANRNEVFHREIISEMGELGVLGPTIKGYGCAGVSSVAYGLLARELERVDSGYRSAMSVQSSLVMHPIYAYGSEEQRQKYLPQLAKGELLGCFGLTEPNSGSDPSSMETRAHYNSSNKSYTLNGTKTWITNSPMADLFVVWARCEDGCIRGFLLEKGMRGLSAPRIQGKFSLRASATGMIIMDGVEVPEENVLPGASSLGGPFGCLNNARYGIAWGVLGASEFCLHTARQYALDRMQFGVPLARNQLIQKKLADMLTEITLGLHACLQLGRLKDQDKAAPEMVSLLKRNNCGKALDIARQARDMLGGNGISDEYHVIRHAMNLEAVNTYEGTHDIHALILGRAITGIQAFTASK
UniProt Q8WUJ0: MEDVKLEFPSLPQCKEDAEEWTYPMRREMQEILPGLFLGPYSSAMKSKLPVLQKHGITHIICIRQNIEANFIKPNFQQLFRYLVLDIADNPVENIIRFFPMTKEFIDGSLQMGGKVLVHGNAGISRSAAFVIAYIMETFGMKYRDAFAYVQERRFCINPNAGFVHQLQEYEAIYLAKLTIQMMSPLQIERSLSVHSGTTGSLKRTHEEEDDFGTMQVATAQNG
UniProt Q92995: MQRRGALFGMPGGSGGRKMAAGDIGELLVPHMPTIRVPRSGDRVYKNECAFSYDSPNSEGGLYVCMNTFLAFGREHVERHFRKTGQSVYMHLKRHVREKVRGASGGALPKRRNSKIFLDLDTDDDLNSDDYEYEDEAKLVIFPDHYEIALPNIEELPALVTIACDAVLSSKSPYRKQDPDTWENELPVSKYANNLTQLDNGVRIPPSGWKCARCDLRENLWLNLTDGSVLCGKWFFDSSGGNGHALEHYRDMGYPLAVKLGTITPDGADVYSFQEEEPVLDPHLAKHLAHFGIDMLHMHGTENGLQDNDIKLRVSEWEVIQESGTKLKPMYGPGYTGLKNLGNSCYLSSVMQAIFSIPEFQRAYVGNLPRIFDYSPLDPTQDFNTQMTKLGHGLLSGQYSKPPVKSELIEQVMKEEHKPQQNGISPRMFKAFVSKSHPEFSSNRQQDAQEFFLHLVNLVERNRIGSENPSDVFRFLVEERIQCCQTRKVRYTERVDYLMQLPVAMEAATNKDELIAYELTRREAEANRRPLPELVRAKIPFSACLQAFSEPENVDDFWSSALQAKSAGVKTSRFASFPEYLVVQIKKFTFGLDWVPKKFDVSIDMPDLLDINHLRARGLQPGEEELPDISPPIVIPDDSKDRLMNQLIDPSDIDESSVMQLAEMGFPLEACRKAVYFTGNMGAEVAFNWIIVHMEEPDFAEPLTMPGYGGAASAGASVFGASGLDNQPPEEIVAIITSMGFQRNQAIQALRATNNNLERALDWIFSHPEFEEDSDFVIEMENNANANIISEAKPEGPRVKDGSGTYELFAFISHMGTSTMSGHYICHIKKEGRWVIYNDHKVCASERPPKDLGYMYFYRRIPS
UniProt Q8TBX8: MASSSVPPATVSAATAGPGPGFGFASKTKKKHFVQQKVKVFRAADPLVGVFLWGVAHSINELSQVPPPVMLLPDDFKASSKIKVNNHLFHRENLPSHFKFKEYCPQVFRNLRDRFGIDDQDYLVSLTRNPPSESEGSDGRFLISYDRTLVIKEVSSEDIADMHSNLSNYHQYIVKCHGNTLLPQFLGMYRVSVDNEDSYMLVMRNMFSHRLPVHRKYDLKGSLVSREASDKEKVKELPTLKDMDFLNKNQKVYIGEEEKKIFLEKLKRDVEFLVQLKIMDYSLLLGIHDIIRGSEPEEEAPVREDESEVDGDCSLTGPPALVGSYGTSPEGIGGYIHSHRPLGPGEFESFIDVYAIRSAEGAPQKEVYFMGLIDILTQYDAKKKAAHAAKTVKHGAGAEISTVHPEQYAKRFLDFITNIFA
UniProt Q96AC1: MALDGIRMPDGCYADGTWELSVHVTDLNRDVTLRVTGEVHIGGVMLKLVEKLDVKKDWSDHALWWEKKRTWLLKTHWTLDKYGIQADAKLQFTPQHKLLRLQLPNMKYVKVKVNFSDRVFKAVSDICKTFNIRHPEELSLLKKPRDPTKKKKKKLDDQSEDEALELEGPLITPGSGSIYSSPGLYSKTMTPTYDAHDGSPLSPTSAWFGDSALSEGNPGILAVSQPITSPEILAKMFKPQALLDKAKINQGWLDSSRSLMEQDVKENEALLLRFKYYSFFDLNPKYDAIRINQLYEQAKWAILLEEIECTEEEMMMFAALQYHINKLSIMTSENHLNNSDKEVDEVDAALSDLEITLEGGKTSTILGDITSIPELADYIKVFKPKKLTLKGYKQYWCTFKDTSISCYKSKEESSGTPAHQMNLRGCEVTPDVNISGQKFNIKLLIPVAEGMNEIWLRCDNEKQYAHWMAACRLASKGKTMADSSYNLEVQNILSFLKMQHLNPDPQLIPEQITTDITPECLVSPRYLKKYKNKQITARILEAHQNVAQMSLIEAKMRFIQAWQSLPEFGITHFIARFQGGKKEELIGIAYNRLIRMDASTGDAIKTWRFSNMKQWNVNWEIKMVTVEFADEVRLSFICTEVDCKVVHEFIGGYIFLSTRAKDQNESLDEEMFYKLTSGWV
UniProt Q8WY91: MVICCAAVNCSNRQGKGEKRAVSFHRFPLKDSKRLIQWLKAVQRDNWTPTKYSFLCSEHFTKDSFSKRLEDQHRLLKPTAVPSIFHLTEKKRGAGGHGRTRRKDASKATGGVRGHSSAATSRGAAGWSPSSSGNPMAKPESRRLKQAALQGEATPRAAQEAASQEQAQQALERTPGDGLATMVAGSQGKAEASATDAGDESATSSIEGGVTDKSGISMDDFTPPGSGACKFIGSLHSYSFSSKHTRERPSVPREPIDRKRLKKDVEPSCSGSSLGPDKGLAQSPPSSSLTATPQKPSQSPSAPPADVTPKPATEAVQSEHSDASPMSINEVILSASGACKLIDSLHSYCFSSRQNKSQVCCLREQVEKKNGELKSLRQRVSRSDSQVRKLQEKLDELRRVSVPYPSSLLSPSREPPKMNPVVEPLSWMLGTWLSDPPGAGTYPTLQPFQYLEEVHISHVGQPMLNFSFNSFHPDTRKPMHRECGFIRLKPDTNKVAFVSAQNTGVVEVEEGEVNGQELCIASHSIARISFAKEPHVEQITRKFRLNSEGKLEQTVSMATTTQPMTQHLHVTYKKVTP
UniProt Q8TDH9: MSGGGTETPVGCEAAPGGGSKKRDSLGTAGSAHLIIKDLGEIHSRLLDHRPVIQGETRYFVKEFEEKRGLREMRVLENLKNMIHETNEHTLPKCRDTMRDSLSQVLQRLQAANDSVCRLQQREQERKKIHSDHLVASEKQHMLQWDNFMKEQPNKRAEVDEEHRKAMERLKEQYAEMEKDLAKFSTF
UniProt Q92522: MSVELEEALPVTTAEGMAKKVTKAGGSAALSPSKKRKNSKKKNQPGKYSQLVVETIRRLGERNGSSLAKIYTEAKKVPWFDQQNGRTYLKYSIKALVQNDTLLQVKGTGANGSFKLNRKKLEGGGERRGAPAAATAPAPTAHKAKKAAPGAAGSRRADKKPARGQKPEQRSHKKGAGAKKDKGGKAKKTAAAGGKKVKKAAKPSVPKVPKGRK
UniProt Q92734, whole entry: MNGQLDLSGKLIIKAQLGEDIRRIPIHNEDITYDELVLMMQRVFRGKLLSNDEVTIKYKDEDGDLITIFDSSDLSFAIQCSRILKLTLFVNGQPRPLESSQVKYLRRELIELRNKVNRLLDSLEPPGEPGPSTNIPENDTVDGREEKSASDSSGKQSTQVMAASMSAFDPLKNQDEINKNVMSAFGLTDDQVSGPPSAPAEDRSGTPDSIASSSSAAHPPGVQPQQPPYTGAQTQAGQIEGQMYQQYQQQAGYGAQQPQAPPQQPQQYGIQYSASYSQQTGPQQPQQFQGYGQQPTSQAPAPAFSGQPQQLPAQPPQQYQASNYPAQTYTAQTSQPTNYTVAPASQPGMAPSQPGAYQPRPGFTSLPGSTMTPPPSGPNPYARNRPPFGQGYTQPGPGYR
UniProt Q8TEL6: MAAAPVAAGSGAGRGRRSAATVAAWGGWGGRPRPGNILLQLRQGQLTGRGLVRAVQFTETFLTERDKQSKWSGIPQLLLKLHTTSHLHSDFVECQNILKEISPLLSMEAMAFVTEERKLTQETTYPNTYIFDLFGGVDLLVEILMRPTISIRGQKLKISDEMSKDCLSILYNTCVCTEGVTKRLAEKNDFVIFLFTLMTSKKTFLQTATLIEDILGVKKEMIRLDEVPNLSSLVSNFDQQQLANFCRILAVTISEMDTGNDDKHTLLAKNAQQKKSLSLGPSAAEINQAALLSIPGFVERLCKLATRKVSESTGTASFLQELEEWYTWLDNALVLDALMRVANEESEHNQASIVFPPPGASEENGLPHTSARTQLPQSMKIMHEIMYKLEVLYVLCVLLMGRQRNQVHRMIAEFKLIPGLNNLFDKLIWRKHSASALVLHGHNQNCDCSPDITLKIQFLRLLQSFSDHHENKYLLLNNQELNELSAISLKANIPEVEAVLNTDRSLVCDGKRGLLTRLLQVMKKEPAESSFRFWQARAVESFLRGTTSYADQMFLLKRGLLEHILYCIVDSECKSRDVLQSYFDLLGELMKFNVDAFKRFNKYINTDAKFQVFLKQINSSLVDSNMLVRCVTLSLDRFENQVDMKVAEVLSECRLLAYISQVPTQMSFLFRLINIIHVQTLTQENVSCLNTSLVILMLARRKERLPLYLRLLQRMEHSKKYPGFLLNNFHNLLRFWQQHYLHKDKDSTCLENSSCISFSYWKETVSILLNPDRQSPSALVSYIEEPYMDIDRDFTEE
UniProt Q96AG3: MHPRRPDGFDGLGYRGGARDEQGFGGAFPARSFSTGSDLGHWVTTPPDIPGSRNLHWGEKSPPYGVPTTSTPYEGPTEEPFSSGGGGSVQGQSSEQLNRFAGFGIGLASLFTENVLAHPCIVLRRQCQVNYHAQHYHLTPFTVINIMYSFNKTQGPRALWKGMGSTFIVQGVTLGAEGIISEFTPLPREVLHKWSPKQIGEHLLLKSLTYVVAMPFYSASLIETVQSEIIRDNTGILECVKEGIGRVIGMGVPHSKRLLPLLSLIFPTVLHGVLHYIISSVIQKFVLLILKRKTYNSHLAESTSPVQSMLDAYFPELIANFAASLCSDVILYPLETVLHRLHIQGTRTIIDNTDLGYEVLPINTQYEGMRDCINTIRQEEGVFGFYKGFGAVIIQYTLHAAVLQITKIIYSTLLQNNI
UniProt Q92688: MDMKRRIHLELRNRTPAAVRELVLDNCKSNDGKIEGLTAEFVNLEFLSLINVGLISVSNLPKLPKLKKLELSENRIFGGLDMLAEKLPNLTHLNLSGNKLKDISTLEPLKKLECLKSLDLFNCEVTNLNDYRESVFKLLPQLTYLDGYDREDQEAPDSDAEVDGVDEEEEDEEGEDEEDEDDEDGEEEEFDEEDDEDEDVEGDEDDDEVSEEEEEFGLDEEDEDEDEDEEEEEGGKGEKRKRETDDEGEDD
UniProt Q92611: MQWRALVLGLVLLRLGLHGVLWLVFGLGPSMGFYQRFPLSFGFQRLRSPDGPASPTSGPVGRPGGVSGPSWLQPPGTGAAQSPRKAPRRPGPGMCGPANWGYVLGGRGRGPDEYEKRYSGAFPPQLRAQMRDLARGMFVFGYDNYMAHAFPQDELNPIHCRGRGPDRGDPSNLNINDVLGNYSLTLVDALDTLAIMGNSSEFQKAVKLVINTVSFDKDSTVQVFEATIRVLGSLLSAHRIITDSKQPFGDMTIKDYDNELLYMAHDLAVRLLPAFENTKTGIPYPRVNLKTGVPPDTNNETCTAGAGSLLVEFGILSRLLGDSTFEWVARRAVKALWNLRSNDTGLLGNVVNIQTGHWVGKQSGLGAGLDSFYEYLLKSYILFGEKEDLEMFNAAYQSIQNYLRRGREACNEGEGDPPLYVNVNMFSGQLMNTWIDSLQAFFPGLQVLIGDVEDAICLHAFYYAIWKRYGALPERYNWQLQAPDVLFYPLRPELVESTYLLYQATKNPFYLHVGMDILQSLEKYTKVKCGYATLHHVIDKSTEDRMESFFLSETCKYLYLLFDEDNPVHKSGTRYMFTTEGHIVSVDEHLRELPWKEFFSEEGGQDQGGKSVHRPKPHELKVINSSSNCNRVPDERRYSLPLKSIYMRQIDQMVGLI
UniProt Q8WZA0: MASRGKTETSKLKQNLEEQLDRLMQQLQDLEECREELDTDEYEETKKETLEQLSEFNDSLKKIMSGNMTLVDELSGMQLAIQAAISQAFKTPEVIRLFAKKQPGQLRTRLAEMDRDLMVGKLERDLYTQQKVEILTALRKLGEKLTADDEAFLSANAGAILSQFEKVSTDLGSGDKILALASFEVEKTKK

Compound: Nc1ncnc2c1ncn2[C@@H]1O[C@H](COP(=O)(O)OP(=O)(O)OP(=O)(O)O)[C@@H](O)[C@H]1O [adenosine triphosphate]
Assay: NP40-soluble protein abundance relative to vehicle (solubility fold change) (ratio); higher = more soluble protein in presence of ATP
In short: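 Crude Jurkat lysate, prepared by Dounce homogenisation, was exposed to eight concentrations from 0.1 to 10 mM for 10 min at room temperature and then 3 min at 37 °C. Solubilisation used 0.8% NP40 with benzonase for 60 min at 4 °C, followed by ultracentrifugation and TMT labelling of the supernatant for LC-MS/MS. After vsn normalisation of intensities, each value is the fold change against the detergent-processed vehicle within each replicate, across three independent experiments.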

Target | NP40-soluble protein abundance (concentration: 0.1mM) | NP40-soluble protein abundance (concentration: 0.5mM)
GCDH (UniProt Q92947) | 1.008 ± 0.0099 | 0.979 ± 0.01
STYX (UniProt Q8WUJ0) | 1.01 ± 0.079 | 1.11 ± 0.12
USP13 (UniProt Q92995) | 1.02 ± 0.064 | 1.02 ± 0.048
FAR1 (UniProt Q8WVX9) | 1 ± 0.027 | 1.03 ± 0.08
UniProt Q8TBX8 and related entries | 1.05 ± 0.067 | 1.04 ± 0.069
UniProt Q96AC1 and related entries | 1.03 ± 0.063 | 1.05 ± 0.044
THAP4 (UniProt Q8WY91) | 1 ± 0.068 | 1.06 ± 0.051
UniProt Q8TDH9 | 1 ± 0.11 | 0.842 ± 0.18
H1FX (UniProt Q92522) | 0.897 ± 0.077 | 0.895 ± 0.087
TRUB1 (UniProt Q8WWH5) | 1.03 ± 0.087 | 0.998 ± 0.023
UniProt Q92636 and related entries | 1.1 ± 0.062 | 1.07 ± 0.08
UniProt Q92734 and related entries | 0.931 ± 0.046 | 0.914 ± 0.042
NEK7 (UniProt Q8TDX7) | 1.05 ± 0.031 | 1.06 ± 0.03
UniProt Q8TEL6 and related entries | 1.01 ± 0.093 | 1.11 ± 0.097
UniProt Q96AG3 and related entries | 1.06 ± 0.15 | 0.942 ± 0.04
UniProt Q8TEP8-3 | 0.946 ± 0.035 | 0.946 ± 0.068
BCL7C (UniProt Q8WUZ0) | 0.995 ± 0.069 | 0.993 ± 0.051
UniProt Q92974 and related entries | 0.992 ± 0.037 | 1.01 ± 0.045
UniProt Q92688 and related entries | 0.836 ± 0.095 | 0.782 ± 0.12
EDEM1 (UniProt Q92611) | 1.04 ± 0.088 | 1 ± 0.038
UniProt Q8WZA0 and related entries | 0.883 ± 0.11 | 0.855 ± 0.14
UniProt Q8WZA9 | 0.96 ± 0.028 | 0.927 ± 0.023

Part of the list above, with tabs.
Target	NP40-soluble protein abundance (concentration: 0.1mM)	NP40-soluble protein abundance (concentration: 0.5mM)
H1FX (UniProt Q92522)	0.897 ± 0.077	0.895 ± 0.087
UniProt Q92974 and related entries	0.992 ± 0.037	1.01 ± 0.045
